# EP0781268B1, “DERIVATIVES OF 2-AMINO-1,2,3,4-TETRAHYDRONAPHTHALENE ACTIVE ON THE CARDIOVASCULAR SYSTEM” (ZAMBON GROUP S.p.A., priority 1994, dated 1996)
# Structures can show the parent of a compound that is named as a salt. At least one structure is not confirmed: it was looked up by name or label, or the drawing left a doubt.
# How the values were obtained:
# D1-like (RSA) = assay: D1-like activity in the Rabbit Splenic Artery (RSA) test, isolated arterial rings; settings: agonist activity; arterial preparations contracted with U46619 0.1 µM; compounds cumulatively administered
# Experimental: Arterial rings were prepared according to Semeraro et al., Naunyn. Schmied. Arch. Pharmacol., 1990, 342 539. […] The tested compounds were cumulatively administered. Dopamine and dopexamine were used as reference substances.
# D2-like (REA) = assay: D2-like activity in the Rabbit Ear Artery (REA) test, isolated arterial rings; design: species or system Male New Zealand rabbits; settings: agonist activity; electrically stimulated ear artery rings (10 Hz, 1 msec, 40-80 mA); compounds cumulatively administered
# Experimental: Arterial rings were prepared according to the method described by […] al., Science, 1978, 443 199, modified as follows. Male New Zealand rabbits weighing 2.5-3 Kg were sacrificed by intravenous injection of an excess of pentobarbital sodium and exsanguinated. The two ears were taken away and the central ear artery was dissected into 3 mm long rings. These preparations were set up in a 25 ml organ bath containing Krebs solution (mM/l): NaCl 118, KCl 4.7, CaCl2 2.5, MgSO4 1.2, NaHCO3 25, KH2PO4 1.2, glucose 11.1, equilibrated with 95% O2-5% CO2 and maintained at 35±1°C. Krebs solution was medicated with EDTA (10 μM) to prevent cathecolamine oxydation, desipramine (0.1 μM) and corticosterone (30 μM), to block neuronal and extraneuronal cathecolamine uptake. The preparations were electrically stimulated (10 Hz, 1 msec, 40-80 mA, 500 msec duration) at 5 minutes intervals. The tested compounds were cumulatively administered. Dopamine and dopexamine were used as reference substances.
compound,measurement,setting,value
"CCCN(CCCCCCCCNCCc1ccc(O)c(O)c1)[C@H]1CCc2c(ccc(O)c2O)C1 [Compound 7, dihydrobromide]",D1-like (RSA) pD2,D1-like (RSA),7.5
same,D2-like (REA) pD2,D2-like (REA),9.7
